In the supplement of paper PMC5407854, “Inhibitor of ppGalNAc-T3-mediated O-glycosylation blocks cancer cell invasiveness and lowers FGF23 levels” (eLife, 2017):
± gives the standard deviation of the averaged measurements. Over roughly 1,700 compounds, “T3 sensor activation Q score (MG/GFP ratio z-score vs DMSO controls)” has its median near 0.25; the highest 2% begin near 1.9. The list shows a part of the results.

System: ppGalNAc-T3 sensor
Test: T3 sensor activation Q score (MG/GFP ratio z-score vs DMSO controls) (SD units); higher = more sensor activation (inhibition of ppGalNAc-T3 glycosylation)
Conditions: HEK293 sensor cells; 10 µM; 6 h
Procedure: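 Cells were treated with compound at 10 uM for 6 h, then MG/GFP ratio was read by flow cytometry (10,000 cells per well, duplicate wells). Q = (R - R_neg)/SD_neg relative to DMSO vehicle controls; the signal rises when the glycosyltransferase is inhibited.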

Structure (SMILES)	T3 sensor activation Q score
Cc1ccc(NCCN(C)C)c2c(=O)c3cc(O)ccc3sc12	-1.3
NC(=O)Oc1cccc(OC(N)=O)c1	0.65
CCCOc1ccc(-c2nc(-c3ccc([N+](=O)[O-])cc3)cs2)cc1	-0.95
Cc1[nH]c(=S)[nH]c(=O)c1CCC1OCCO1	-0.45
CCN(CC)CCN1C(=O)c2cccc3cc(N)cc(c23)C1=O	0.95
Cc1ccc(N=Nc2c(O)c3ccccc3[nH]c2=O)c(S(=O)(=O)N(C)C)c1	0.95
Nc1c(Cl)cc(S(N)(=O)=O)cc1S(N)(=O)=O	1.1
O=C(c1ccc(O)cc1)c1ccc(C(=O)c2ccc(O)cc2)cc1	1.25
Cc1cc(NC(=O)c2ccccc2)c(Cl)cc1N	-1.55
O=c1[nH]cc(I)cc1I	-0.05
Cc1cccc2c1c1ccc3c(c1n2C)C(=O)C=CC3=O	-0.6
COc1ccccc1NC(=O)Oc1cccc(OC(=O)c2ccccc2)c1	0.35
COc1c(NC(C)=O)c2ccccc2c2ccccc12	-0.2
O=C(COc1ccc([N+](=O)[O-])cc1Cl)N1CCOCC1	1.85
C#CC(c1ccccc1)(c1ccccc1)n1ccnc1	0.35
c1ccc(-c2nn(-c3ccccc3)[n+](-c3ccccc3)n2)cc1	-0.1
Nc1ccc(C(=O)Nc2cccc(N)c2)cc1	-1.35
COc1cc(Cl)c(CC(=O)c2c[nH]c3ccccc23)cc1OC	1.05
Cc1ccn2c(C(C)O)nnc2c1 (stereo unspecified)	0.05
Clc1ccc(-c2nc(-c3cc4cc(Cl)ccc4o3)cs2)cc1	1.1
Nc1ncn([C@@H]2O[C@H](CO)[C@@H](O)[C@H]2O)c(=O)n1	0.75
COc1cccc(NC(=S)Nc2ccc(O)cc2)c1	-0.55
CCCCC[C@H](O)/C=C/[C@@H]1[C@@H](C/C=C\CCCC(=O)O)[C@@H](O)C[C@H]1O	-0.2
O=C1CCC(c2ccccc2)(c2ccccc2)CC1	0.25
O=c1cc(N=Nc2ccc(Cl)cc2)[nH]c(=O)[nH]1	-0.5

Structure (SMILES)	T3 sensor activation Q score
CC1=NN(c2ccccc2)C(=O)C1N=Nc1ccc(S(N)(=O)=O)cc1 (stereo unspecified)	0.65
CC1CC(C)(C)C2=NCCN21 (stereo unspecified)	1.1
CCC(C)NC(=O)CC(C)C (stereo unspecified)	0.25
O=[N+]([O-])c1c(N2CCN(CCO)CC2)nc2ccccn12	0.5
c1ccc(-n2ncc3cccnc32)cc1	-0.05
Nc1ccc(C(=O)Nc2ccc(Nc3ccncc3)cc2)cc1	0.85
O=C(O)CCC(=O)c1ccc2ccc3cccc4ccc1c2c34	1.75
O=C1C(=Nc2cccc(Cl)c2)CC(c2ccc(Cl)cc2)N1c1cccc(Cl)c1 (stereo unspecified)	-1.1
Cc1ccc(C(=O)Nc2ccc(CN3CCN(C)CC3)c(C(F)(F)F)c2)cc1C#Cc1cnc2cccnn12	1.9
Cc1ccnc(NC(c2ccccc2)c2ccc3cccnc3c2O)c1 (stereo unspecified)	-0.55
CCCN(CCC)CC(=O)N1CC(=O)Nc2ccccc21	0.55
O=c1[nH]c(=S)c2ncn(-c3ccccc3)c2[nH]1	0.35
COc1ccc(-c2cc3ccccc3[nH]2)cc1	0.7
C[C@@H]1O[C@@H](Oc2c(-c3cc(O)c(O)c(O)c3)oc3cc(O)cc(O)c3c2=O)[C@H](O)[C@H](O)[C@H]1O	0.05
Nc1ccnn1-c1ccccc1	-0.55
c1ccc2[nH]c(-c3ccncc3)nc2c1	0.2
Cc1cc(C)n(C(N)=NC(=O)c2ccc([N+](=O)[O-])cc2)n1	1.35
O=c1ccc(Cl)n[nH]1	1.35
O=C(Nc1cccnc1)c1cccc([N+](=O)[O-])c1	1.55
O=C(O)/C=C\C(=O)Nc1ccc(-c2ccccc2)cc1	0.45
N#CCc1cnc2ccccc2n1	-1.1
O=C(c1ccc(Cl)nc1)c1cccs1	0.3
S=c1nc[nH]c2c1ncn2C1CCCC1	0.3
Cc1ccc([N+](=O)[O-])cc1NC(=O)Nc1ccc(S(N)(=O)=O)cc1	0.8
Cc1ccc(-c2nc(-c3nccc4ccccc34)oc2-c2ccccc2)cc1	1.05

Structure (SMILES)	T3 sensor activation Q score
COc1cc2nccc(Oc3ccc(NC(=O)C4(C(=O)Nc5ccc(F)cc5)CC4)cc3)c2cc1OC	0.1
COc1cc2c(c(OC)c1O)C(=O)CO2	1.55
COc1cccc(OCC(O)CN2CCN(c3ccccc3)CC2)c1 (stereo unspecified)	-0.05
Cc1ccc(C#CC(C)(O)C(C)(C)C)cn1 (stereo unspecified)	0.75
O=C(Nc1nc2ccccc2s1)Nc1ccc([N+](=O)[O-])cc1Cl	-0.2
CCOC(=O)Cc1cc(=O)[nH]n(-c2ccccc2)c1=O	0.35
OCC(O)C1OCOC(C(O)CO)C1O (stereo unspecified)	-1
CO[C@@]12[C@H](COC(N)=O)C3=C(C(=O)C(C)=C(N)C3=O)N1C[C@@H]1N[C@@H]12	0.575 ± 0.32
COc1ccc(C2OC3=C(Nc4cc(C)c(C)cc4N3)C2=O)cc1 (stereo unspecified)	1
N#C/C(=C\c1ccc[nH]1)C(=O)c1ccccc1	-0.55
Oc1ccccc1-n1c(-c2ccccc2)ccc1-c1ccccc1	0.5
C=CCOc1ccnc(-c2ccccc2)n1	1.65
c1ccc(-c2nnc(-c3ccccn3)s2)nc1	0.75
COc1ccc2nc3cc(Cl)ccc3c(C#N)c2c1	0.5
Nc1n[nH]c(-c2ccccc2)n1	0.5
Clc1nc(Oc2ccccc2)nc(-c2cn(-c3ccccc3)c3ccccc23)n1	1.1
Cc1ccc(N=Nc2c(O)ccc3n[nH]nc23)cc1	-1.6
ONC(=NCc1ccccc1)c1ccccc1	0.2
COc1ccc(CN2CCOC2=O)cc1OC	-0.55
Cc1ccc(C(C)C)cc1NC(=O)Nc1ccc([N+](=O)[O-])cc1	-1.1
Cc1cc(=O)oc2cc(OS(C)(=O)=O)ccc12	1.35
CC1CC(O)C2C3(C)CCCC2(COC3=O)C12CCC1(CCOC1=O)O2 (stereo unspecified)	1.25
CC(=O)OCc1cc(-c2nc3ccccc3[nH]c2=O)nn1-c1ccc(Cl)cc1	0.6
C(=C\c1ccccn1)/c1ccccn1	0.65
N#CC1C=Cc2c(ccc3ccccc23)N1C(=O)c1ccccc1 (stereo unspecified)	2.65

Structure (SMILES)	T3 sensor activation Q score
c1ccc(-c2ccc(-c3nccc4ccccc34)[nH]2)cc1	0
Clc1ccc(-c2c(C3=NCCCN3)nnn2-c2ccc(Cl)cc2)cc1	0.3
Nc1nc(N)c2cc(Sc3ccc4ccccc4c3)ccc2n1	1.15
CCOC(=O)c1c(NC(=S)NC)sc2c1CCCC2	0.85
O=c1oc(-c2ccccc2)c(-c2ccccc2)c2ccccc12	0.8
c1ccc(-c2ccc3c(c2)NCCN3)cc1	-1.45
O=C(NC1CCCCC1)c1cc2ccccc2cc1O	-0.1
O=C(Oc1ccccc1)c1cccc2cccc(C(=O)Oc3ccccc3)c12	1.1
CSc1cccc(NC(=O)Nc2nc3c(C)cccc3s2)c1	-1
COC1=C[C@@H](C)[C@@H]2C[C@H]3OC(O)C[C@H]4C(C)=C(OC)C(=O)[C@H]([C@@]2(C)C1=O)[C@@]34C (stereo partly specified)	0.4
CCc1noc2cc(-c3ccccc3)n(C)c(=O)c12	0.35
CCN(CC)CCN1c2ccccc2Sc2ccc3ccccc3c21	-1.05
Cc1cccc(N2CCN(CC(O)COc3ccc(Cl)cc3)CC2)c1 (stereo unspecified)	0
c1ccc(-c2nnc3nc(N4CCCCC4)nc(N4CCCCC4)n23)cc1	1.3
O=C(Nc1cccc(-c2nc3ccccc3[nH]2)c1)c1ccc(C(=O)Nc2cccc(-c3nc4ccccc4[nH]3)c2)cc1	0.65
CCOC(=O)Cc1cc(=O)c2cc(C)ccc2[nH]1	0.7
O=C1C=CC(=O)N1c1ccc(I)cc1Cl	0.15
Cc1cccc(C(O)C(O)c2cccc(C)n2)n1 (stereo unspecified)	0.15
CC(=NO)C1CC(CC(=O)O)C1(C)C (stereo unspecified)	-0.55
Nc1nc(N)c(C=Nc2ccc(Br)cc2)c(Nc2ccc(Br)cc2)n1	0.25
O=C(/C=C/c1ccc(Cl)s1)c1ccc(Cl)s1	1.1
COC(=O)C1(F)C(=O)NC(=O)NC1OC (stereo unspecified)	0.6
Cc1ccc(N=Nc2c(N)nn(-c3ccccc3)c2N)cc1	1.05
CCCNC(=O)c1ccccc1C(=O)NC1(C(=O)NCCC)CCCC1	-0.35
NC1=NC(c2ccccc2)N=C(Nc2ccccc2)N1 (stereo unspecified)	1.2

Part of the list above in order of heavy-atom count, ascending:
Structure (SMILES)	T3 sensor activation Q score
CC(=NO)C1CC(CC(=O)O)C1(C)C (stereo unspecified)	-0.55
CCOC(=O)Cc1cc(=O)c2cc(C)ccc2[nH]1	0.7
CCc1noc2cc(-c3ccccc3)n(C)c(=O)c12	0.35
Nc1nc(N)c2cc(Sc3ccc4ccccc4c3)ccc2n1	1.15
Nc1nc(N)c(C=Nc2ccc(Br)cc2)c(Nc2ccc(Br)cc2)n1	0.25
O=C(Nc1cccc(-c2nc3ccccc3[nH]2)c1)c1ccc(C(=O)Nc2cccc(-c3nc4ccccc4[nH]3)c2)cc1	0.65

(further entries)

Structure (SMILES)	T3 sensor activation Q score
Nc1nc(N)c(N=Nc2ccc(C(=O)O)cc2)c(N)n1	0.55
COc1cc([C@@H]2c3cc4c(cc3[C@@H](O[C@@H]3O[C@@H]5CO[C@@H](C)O[C@H]5[C@H](O)[C@H]3O)[C@H]3COC(=O)[C@H]23)OCO4)cc(OC)c1O	0.2
CCOc1ccc(S(=O)(=O)c2ccc(C)cc2)c2c1no[n+]2[O-]	-0.75
c1ccc2c(c1)cnc1ccccc12	1.05
CC[C@@]1(O)C(=O)OCc2c1cc1n(c2=O)Cc2cc3c(N)cccc3nc2-1	-1.05
O=c1nc(Nc2cccc(Cl)c2)oc2cc(Cl)oc(=O)c12	-0.4
O=C(O)c1ccccc1-c1ccccc1C(=O)Nc1ccc2oc(=O)c3ccccc3c2c1	-0.25
CC1CN(CCN2CC(C)N(C=O)CC2C)C(C)CN1C=O (stereo unspecified)	1.3
CN(C)c1nc(N(C)C)nc(N(C)C)n1	0.5
COC(=O)C1(C(=O)OC)C2C(=O)C3C(C21)C3(C(=O)OC(C)(C)C)C(=O)OC(C)(C)C (stereo unspecified)	0.65
S=c1[nH]c2ccccc2n2cccc12	0.6
CCOC(=O)Cn1nc2oc(=O)c(CCN3CCN(c4ccccc4OC)CC3)c(C)c2c1C	-0.6
NS(=O)(=O)c1ccc(Nc2ccccc2)c([N+](=O)[O-])c1	0.85
NC(=O)C1=C(N)c2ccccc2C1c1ccccc1 (stereo unspecified)	1.15
Nc1nc(SCc2ccccn2)c2ncn(C3OC(CO)C(O)C3O)c2n1 (stereo unspecified)	-1.8
NNC(=O)CNC(=O)Nc1n[nH]c(=S)s1	0.3
Nc1nc(=S)c2[nH]cnc2[nH]1	-0.65
O=C(Nc1ccc(C2=NCCN2)cc1)c1ccc(C(=O)Nc2ccc(C3=NCCN3)cc2)c(Cl)c1	-1.25
CCCCOC(=O)c1cccnc1	1.05
O=C1CSC(=S)N1/N=C/c1c[nH]c2ccc(Br)cc12	0.25
CCCCCOc1ccc(N2C(=O)C(C)CNC2=S)cc1 (stereo unspecified)	1.1
